In the supplement of paper PMC7752906:
Structures can show the parent of a compound that is named as a salt. The list shows a part of the results. Repeats in this data set agree poorly, so a single value says little.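 About 40 Schistosoma mansoni schistosomula per well were imaged over time in bright field and compared with 0.1% DMSO wells. A drug counts as a hit if its Mahalanobis distance reaches 2.47 or more, three standard deviations above the DMSO control mean. Degeneracy is the fraction of worms scored opaque.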

System: Schistosoma mansoni schistosomula
Test: Mahalanobis distance of static-rate-frequency phenotype descriptors from DMSO controls (dimensionless); higher = stronger phenotypic change versus DMSO
Settings: 10 µM; 72 h

SMILES	Mahalanobis distance
CO[C@H]1/C=C/O[C@@]2(C)Oc3c(C)c(O)c4c(O)c(c(/C=N/N5CCN(C6CCCC6)CC5)c(O)c4c3C2=O)NC(=O)/C(C)=C\C=C\[C@H](C)[C@H](O)[C@@H](C)[C@@H](O)[C@@H](C)[C@H](OC(C)=O)[C@@H]1C [Rifapentine]	inactive: 1.48
CN1CCC(=C2c3ccccc3C=Cc3ccccc32)CC1 [Cyproheptadine]	active: 3.49
CC(Cc1cccc(C(F)(F)F)c1)NCCOC(=O)c1ccccc1 (stereo not given) [Benfluorex Hydrochloride]	inactive: 2.32
CC(=O)S[C@@H]1CC2=CC(=O)CC[C@]2(C)[C@H]2CC[C@@]3(C)[C@@H](CC[C@@]34CCC(=O)O4)[C@H]12 [Spironolactone]	active: 4.26
Cc1nccnc1N1CCCCC1 [Modaline Sulfate]	inactive: 2.07
C=C1CC[C@H](O)C/C1=C/C=C1\CCC[C@]2(C)[C@@H]([C@H](C)CCCC(C)C)CC[C@@H]12 [Cholecalciferol]	inactive: 1.66
Oc1ccc2ccccc2c1 [Beta-naphthol]	active: 3.05
CN1CCN(C2=Nc3ccccc3Oc3ccc(Cl)cc32)CC1 [Loxapine Succinate]	inactive: 1.57
CC(C)CC(N)=O [Isovaleramide]	inactive: 1.18
CC(=O)OCC(=O)[C@@]1(O)[C@@H](C)C[C@H]2[C@@H]3CCC4=CC(=O)C=C[C@]4(C)[C@@]3(F)[C@@H](O)C[C@@]21C [Betamethasone Acetate]	inactive: 1.7
O=C(O)c1cn(-c2ccc(F)cc2)c2cc(N3CCNCC3)c(F)cc2c1=O [Sarafloxacin Hydrochloride]	active: 2.92
O=C(O)Cc1ccc(-c2ccccc2)cc1 [Felbinac]	inactive: 1.5
CC[N+](C)(CC)CCOC(=O)C(O)(c1ccccc1)C1CCCCC1 (stereo not given) [Oxyphenonium Bromide]	inactive: 1.66
CC1(C)OC(=O)C(OCC2CC2)=C1c1ccc(S(C)(=O)=O)cc1 [Firocoxib]	inactive: 2.3
CCN(CC)CCOC(=O)C1(C2CCCCC2)CCCCC1 [Dicyclomine]	active: 3.11
CCCCOCCOCCOCc1cc2c(cc1CCC)OCO2 [Piperonyl Butoxide]	inactive: 2.23
CC(=O)Oc1ccccc1C(=O)Nc1ncc([N+](=O)[O-])s1 [Nitazoxanide]	inactive: 1.93
CN(C)CCCN1c2ccccc2Sc2ccc(C(F)(F)F)cc21 [Triflupromazine Hydrochloride]	active: 2.5
CC(NCCC(c1ccccc1)c1ccccc1)c1ccccc1 (stereo not given) [Fendiline Hydrochloride]	inactive: 2.42
CN(C)[C@@H]1C(O)=C(C(=O)NCN2CCCC2)C(=O)[C@@]2(O)C(O)=C3C(=O)c4c(O)cccc4[C@@](C)(O)[C@H]3C[C@@H]12 [Rolitetracycline]	inactive: 1.11
CC(C)NC[C@@H](O)COc1cccc2ccccc12 [Dexpropranolol Hydrochloride]	inactive: 1.95
CCc1cn([C@H]2C[C@H](O)[C@@H](CO)O2)c(=O)[nH]c1=O [Edoxudine]	inactive: 2.02
O=S(=O)(O)NC1CCCCC1 [Cyclamic Acid]	inactive: 1.28
CCN(CC)CCc1nc(-c2ccccc2)no1 [Oxolamine Citrate]	inactive: 1.7

SMILES	Mahalanobis distance
O=c1oc2ccccc2c(O)c1Cc1c(O)c2ccccc2oc1=O [Dicumarol]	inactive: 1.88
COc1c2occc2c(OC)c2c(=O)cc(C)oc12 [Khellin]	inactive: 1.16
NCC(O)CC(=O)O (stereo not given) [Aminohydroxybutyric Acid]	active: 4.14
CC(=O)OCC(CCn1cnc2cnc(N)nc21)COC(C)=O [Famciclovir]	inactive: 1.66
C[C@H](CCC(=O)O)[C@H]1CC[C@H]2[C@@H]3[C@H](O)C[C@@H]4C[C@H](O)CC[C@]4(C)[C@H]3CC[C@]12C [Chenodiol]	active: 2.48
CCC(=O)O[C@]1(C(=O)CCl)[C@@H](C)C[C@H]2[C@@H]3CCC4=CC(=O)C=C[C@]4(C)[C@@]3(F)[C@@H](O)C[C@@]21C [Clobetasol Propionate]	active: 2.57
Cc1c(O)c(=O)ccn1C [Deferiprone]	inactive: 1.41
CC(C)[C@H](N)C(=O)OCC(CO)OCn1cnc2c(=O)nc(N)[nH]c21 (stereo not given in full) [Valganciclovir Hydrochloride]	active: 2.47
NC(=O)c1ccc([N+](=O)[O-])cc1Cl [Aklomide]	inactive: 1.79
COc1ccc(C2CNC(=O)C2)cc1OC1CCCC1 (stereo not given) [Rolipram]	inactive: 1.9
C[C@H]1C[C@@H]2[C@H]([C@@H](O)C[C@@]3(C)[C@H]2CC[C@]3(O)C(=O)CO)[C@@]2(C)C=CC(=O)C=C12 [Methylprednisolone]	inactive: 1.71
CCCNCC(O)COc1ccccc1C(=O)CCc1ccccc1 (stereo not given) [Propafenone]	inactive: 1.93
CN(C)c1nc(N(C)C)nc(N(C)C)n1 [Altretamine]	inactive: 2.03
CC(C)NCC(O)c1ccc2ccccc2c1 (stereo not given) [Pronetalol Hydrochloride]	inactive: 1.78
CC(=O)O[C@]1(C(C)=O)CC[C@H]2[C@@H]3C[C@H](C)C4=CC(=O)CC[C@]4(C)[C@H]3CC[C@@]21C [Medroxyprogesterone Acetate]	inactive: 2.4
O=c1cc[nH]c(=S)[nH]1 [2-thiouracil]	active: 3.33
CC(=O)OC1CC2CCC1(C)C2(C)C (stereo not given) [Bornyl Acetate]	inactive: 2.3
CC(C)C[C@@H]1NC(=O)[C@H](CCCN)NC(=O)[C@H](C(C)C)NC(=O)[C@H](Cc2ccc(O)cc2)N[C@@H](CCC(=O)O)C(=O)N[C@@H](CC(N)=O)C(=O)[C@@H](Cc2ccccc2)NC(=O)[C@H](Cc2ccccc2)NC(=O)[C@@H]2CCCN2C(=O)[C@@H](Cc2ccccc2)NC1=O [Tyrothricin]	active: 2.8
Nc1ccc2cc3ccc(N)cc3nc2c1 [Proflavine Hemisulfate]	inactive: 2.47
CC(=O)Nc1ncc([N+](=O)[O-])s1 [Nithiamide]	active: 2.93
CCCCCCCCCCCCCCCC(=O)O[C@@H]1[C@@H](O)[C@@H](O)[C@@H]([C@H](NC(=O)[C@@H]2C[C@@H](CCC)CN2C)[C@H](C)Cl)O[C@@H]1SC [Clindamycin Palmitate Hydrochloride]	inactive: 2.13
Nc1ccc(S(=O)(=O)Nc2ccnn2-c2ccccc2)cc1 [Sulfaphenazole]	inactive: 1.74
CNCC(O)c1cccc(O)c1 [L-phenylephrine]	active: 2.59
CO/N=C(\C(=O)N[C@@H]1C(=O)N2C(C(=O)O)=C(COC(N)=O)CS[C@H]12)c1ccco1 [Cefuroxime]	active: 3.04

In the list so far, 7 have four or more nitrogen atoms.
SMILES	Mahalanobis distance
CO[C@H]1/C=C/O[C@@]2(C)Oc3c(C)c(O)c4c(O)c(c(/C=N/N5CCN(C6CCCC6)CC5)c(O)c4c3C2=O)NC(=O)/C(C)=C\C=C\[C@H](C)[C@H](O)[C@@H](C)[C@@H](O)[C@@H](C)[C@H](OC(C)=O)[C@@H]1C [Rifapentine]	inactive: 1.48
CC(=O)OCC(CCn1cnc2cnc(N)nc21)COC(C)=O [Famciclovir]	inactive: 1.66
CC(C)[C@H](N)C(=O)OCC(CO)OCn1cnc2c(=O)nc(N)[nH]c21 (stereo not given in full) [Valganciclovir Hydrochloride]	active: 2.47
CN(C)c1nc(N(C)C)nc(N(C)C)n1 [Altretamine]	inactive: 2.03
CC(C)C[C@@H]1NC(=O)[C@H](CCCN)NC(=O)[C@H](C(C)C)NC(=O)[C@H](Cc2ccc(O)cc2)N[C@@H](CCC(=O)O)C(=O)N[C@@H](CC(N)=O)C(=O)[C@@H](Cc2ccccc2)NC(=O)[C@H](Cc2ccccc2)NC(=O)[C@@H]2CCCN2C(=O)[C@@H](Cc2ccccc2)NC1=O [Tyrothricin]	active: 2.8
Nc1ccc(S(=O)(=O)Nc2ccnn2-c2ccccc2)cc1 [Sulfaphenazole]	inactive: 1.74
CO/N=C(\C(=O)N[C@@H]1C(=O)N2C(C(=O)O)=C(COC(N)=O)CS[C@H]12)c1ccco1 [Cefuroxime]	active: 3.04

Sorted by formula weight (ascending): three of the compounds above
SMILES	Mahalanobis distance
Cc1c(O)c(=O)ccn1C [Deferiprone]	inactive: 1.41
Nc1ccc2cc3ccc(N)cc3nc2c1 [Proflavine Hemisulfate]	inactive: 2.47
C[C@H](CCC(=O)O)[C@H]1CC[C@H]2[C@@H]3[C@H](O)C[C@@H]4C[C@H](O)CC[C@]4(C)[C@H]3CC[C@]12C [Chenodiol]	active: 2.48

(listing goes on)

SMILES	Mahalanobis distance
CCC(=O)c1c(O)cc(O)cc1O [Flopropione]	active: 3.29
C1CCN2C[C@@H]3C[C@@H](CN4CCCC[C@@H]34)[C@H]2C1 [Sparteine Sulfate]	inactive: 1.53
O=C1C2CC3CC1CC(O)(C3)C2 [Idramantone]	inactive: 1.29
CCN1CCN(c2cc3c(cc2F)c(=O)c(C(=O)O)cn3C2CC2)CC1 [Enrofloxacin]	inactive: 1.15
O=C(O)COC(=O)Cc1ccccc1Nc1c(Cl)cccc1Cl [Aceclofenac]	inactive: 2.4
C[C@@H]1C[C@H]2[C@@H]3CCC4=CC(=O)C=C[C@]4(C)[C@@]3(F)[C@@H](O)C[C@]2(C)[C@@]1(O)C(=O)CO [Dexamethasone]	inactive: 2.41
CC1(C)O[C@@H]2C[C@H]3[C@@H]4CCC5=CC(=O)C=C[C@]5(C)[C@@]4(F)[C@@H](O)C[C@]3(C)[C@]2(C(=O)CO)O1 [Triamcinolone Acetonide]	inactive: 1.88
Cc1cnc(NC(=O)C2=C(O)c3ccccc3S(=O)(=O)N2C)s1 [Meloxicam]	inactive: 1.77
COCCOC(=O)C1=C(C)NC(C)=C(C(=O)OC/C=C/c2ccccc2)C1c1cccc([N+](=O)[O-])c1 (stereo not given) [Cilnidipine]	active: 4.5
CCn1nc(C(=O)O)c(=O)c2cc3c(cc21)OCO3 [Cinoxacin]	inactive: 1.54
C[C@H]1C[C@H]2[C@@H]3CCC4=CC(=O)C=C[C@]4(C)[C@@]3(F)[C@@H](O)C[C@]2(C)[C@@]1(O)C(=O)CO [betamethasone]	inactive: 1.75
CC1=Nc2ccc(Cl)cc2S(=O)(=O)N1 [Diazoxide]	active: 4.47
Cc1ccc(Cl)c(Nc2ccccc2C(=O)O)c1Cl [Meclofenamic Acid]	inactive: 1.57
C=C1/C(=C\C=C2/CCC[C@]3(C)[C@@H]([C@H](C)/C=C/[C@@H](O)C4CC4)CC[C@@H]23)C[C@@H](O)C[C@@H]1O [Calcipotriene]	inactive: 2.14
CC(=O)c1ccc(S(=O)(=O)NC(=O)NC2CCCCC2)cc1 [Acetohexamide]	inactive: 2.14
COc1ccc(CN(CCN(C)C)c2ccccn2)cc1 [Pyrilamine]	active: 3.7
CCCNC(C)C(=O)Nc1ccccc1C (stereo not given) [Prilocaine]	inactive: 2.1
CC(COc1ccccc1)N(CCCl)Cc1ccccc1 (stereo not given) [Phenoxybenzamine]	inactive: 2.21
Cc1nc2ccccc2n1Cc1ccc(Cl)cc1 [Chlormidazole]	active: 2.88
Cc1cc(=O)oc2cc(O)ccc12 [Hymecromone]	inactive: 2.05
CCCN[C@H]1CCc2nc(N)sc2C1 [Pramipexole]	active: 5.4
CCOC(=O)OC(C)OC(=O)[C@@H]1N2C(=O)[C@@H](NC(=O)[C@H](N)c3ccccc3)[C@H]2SC1(C)C (stereo not given in full) [Bacampicillin Hydrochloride]	inactive: 2.37
